{"source": "PubChem BioAssay AID1259405 (NCATS, 2018)", "aim": "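Knock-downs that lift recombinant protein yield in hamster ovary cells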 (primary screen)", "cells": "Chinese hamster CHO-K1 ovary cells with stable secreted eGFP expression", "knock-down reagent": "single siRNA against mouse genes, 0.8 pmol siRNA per well (2 µl of 400 nM stock)", "time to read-out": "3 days", "measurement": "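Per-well intracellular GFP measured by laser scanning cytometry, plus viability from ATP luminescence, each relative to plate median of non-targeting control wells, in %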", "direction": "GFP, % of control: higher = more GFP per well, higher productivity; viability (ATP), % of control: higher = more viable cells (more ATP)", "hit rule": "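a knock-down is called active if GFP reaches 120% or more of non-targeting control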", "note": "This is an unselected part of about 50,000 deposited reagents. About 4,000 of them (8%) were called active. 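Mouse siRNA library applied to hamster cells; one well for each siRNA.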 A number with no mark means an inactive call. Reagents against one gene are numbered here."}
{"target gene": "Slc25a12 (GeneID 78830)", "reagent": 1, "GFP, % of control": 106, "viability (ATP), % of control": 112}
{"target gene": "Slc25a12 (GeneID 78830)", "reagent": 2, "GFP, % of control": 38.4, "viability (ATP), % of control": 23.5}
{"target gene": "Slc25a12 (GeneID 78830)", "reagent": 3, "GFP, % of control": 64.8, "viability (ATP), % of control": 73.1}
{"target gene": "Atp6v1d (GeneID 73834)", "reagent": 1, "GFP, % of control": 113, "viability (ATP), % of control": 110}
{"target gene": "Atp6v1d (GeneID 73834)", "reagent": 2, "GFP, % of control": 74.8, "viability (ATP), % of control": 89.4}
{"target gene": "Atp6v1d (GeneID 73834)", "reagent": 3, "GFP, % of control": 47.8, "viability (ATP), % of control": 49.2}
{"target gene": "Rab1a (GeneID 19324)", "reagent": 1, "GFP, % of control": "125 (active)", "viability (ATP), % of control": 127}
{"target gene": "Rab1a (GeneID 19324)", "reagent": 2, "GFP, % of control": 107, "viability (ATP), % of control": 105}
{"target gene": "Rab1a (GeneID 19324)", "reagent": 3, "GFP, % of control": 71.2, "viability (ATP), % of control": 85.9}
{"target gene": "Cadps2 (GeneID 320405)", "reagent": 1, "GFP, % of control": 33.6, "viability (ATP), % of control": 45.6}
{"target gene": "Cadps2 (GeneID 320405)", "reagent": 2, "GFP, % of control": 58.5, "viability (ATP), % of control": 59.7}
{"target gene": "Cadps2 (GeneID 320405)", "reagent": 3, "GFP, % of control": 85.3, "viability (ATP), % of control": 51.4}
{"target gene": "Vmn2r42 (GeneID 22310)", "reagent": 1, "GFP, % of control": 50.7, "viability (ATP), % of control": 44.8}
{"target gene": "Vmn2r42 (GeneID 22310)", "reagent": 2, "GFP, % of control": 80.2, "viability (ATP), % of control": 81.4}
{"target gene": "Vmn2r42 (GeneID 22310)", "reagent": 3, "GFP, % of control": 87.2, "viability (ATP), % of control": 66.3}
{"target gene": "Plekhf2 (GeneID 71801)", "reagent": 1, "GFP, % of control": 72.3, "viability (ATP), % of control": 60.5}
{"target gene": "Plekhf2 (GeneID 71801)", "reagent": 2, "GFP, % of control": 37.9, "viability (ATP), % of control": 58.3}
{"target gene": "Plekhf2 (GeneID 71801)", "reagent": 3, "GFP, % of control": 90.3, "viability (ATP), % of control": 61.2}
{"target gene": "Snx13 (GeneID 217463)", "reagent": 1, "GFP, % of control": "140 (active)", "viability (ATP), % of control": 139}
{"target gene": "Snx13 (GeneID 217463)", "reagent": 2, "GFP, % of control": 101, "viability (ATP), % of control": 104}
{"target gene": "Snx13 (GeneID 217463)", "reagent": 3, "GFP, % of control": 120, "viability (ATP), % of control": 69}
{"target gene": "Ndn (GeneID 17984)", "reagent": 1, "GFP, % of control": 92.8, "viability (ATP), % of control": 98.3}
{"target gene": "Ndn (GeneID 17984)", "reagent": 2, "GFP, % of control": 75.5, "viability (ATP), % of control": 56.8}
{"target gene": "Ndn (GeneID 17984)", "reagent": 3, "GFP, % of control": 72.3, "viability (ATP), % of control": 59.1}
{"target gene": "Pdgfra (GeneID 18595)", "reagent": 1, "GFP, % of control": 57.6, "viability (ATP), % of control": 62.8}
{"target gene": "Psmc3ip (GeneID 19183)", "reagent": 1, "GFP, % of control": 72.4, "viability (ATP), % of control": 87.9}
{"target gene": "Psmc3ip (GeneID 19183)", "reagent": 2, "GFP, % of control": 52.7, "viability (ATP), % of control": 72.8}
{"target gene": "Psmc3ip (GeneID 19183)", "reagent": 3, "GFP, % of control": 77.8, "viability (ATP), % of control": 79.1}
{"target gene": "Zfp24 (GeneID 59057)", "reagent": 1, "GFP, % of control": 65.3, "viability (ATP), % of control": 74.1}
{"target gene": "Zfp24 (GeneID 59057)", "reagent": 2, "GFP, % of control": 65.8, "viability (ATP), % of control": 80.3}
{"target gene": "Zfp24 (GeneID 59057)", "reagent": 3, "GFP, % of control": "131 (active)", "viability (ATP), % of control": 109}
{"target gene": "Pbx4 (GeneID 80720)", "reagent": 1, "GFP, % of control": 65.3, "viability (ATP), % of control": 87.4}
{"target gene": "Pbx4 (GeneID 80720)", "reagent": 2, "GFP, % of control": 87.9, "viability (ATP), % of control": 114}
{"target gene": "Pbx4 (GeneID 80720)", "reagent": 3, "GFP, % of control": 63.2, "viability (ATP), % of control": 72.4}
{"target gene": "Mtx1 (GeneID 17827)", "reagent": 1, "GFP, % of control": 87.4, "viability (ATP), % of control": 55.1}
{"target gene": "Mtx1 (GeneID 17827)", "reagent": 2, "GFP, % of control": 89.7, "viability (ATP), % of control": 91}
{"target gene": "Mtx1 (GeneID 17827)", "reagent": 3, "GFP, % of control": 80.6, "viability (ATP), % of control": 49.7}
{"target gene": "Mboat1 (GeneID 218121)", "reagent": 1, "GFP, % of control": 93.6, "viability (ATP), % of control": 104}
{"target gene": "Mboat1 (GeneID 218121)", "reagent": 2, "GFP, % of control": 69.7, "viability (ATP), % of control": 108}
{"target gene": "Mboat1 (GeneID 218121)", "reagent": 3, "GFP, % of control": 116, "viability (ATP), % of control": 133}
